{"sequences": {"note": "By UniProt entry, the sequences of proteins in these tests, tags left out.", "UniProt Q15797": "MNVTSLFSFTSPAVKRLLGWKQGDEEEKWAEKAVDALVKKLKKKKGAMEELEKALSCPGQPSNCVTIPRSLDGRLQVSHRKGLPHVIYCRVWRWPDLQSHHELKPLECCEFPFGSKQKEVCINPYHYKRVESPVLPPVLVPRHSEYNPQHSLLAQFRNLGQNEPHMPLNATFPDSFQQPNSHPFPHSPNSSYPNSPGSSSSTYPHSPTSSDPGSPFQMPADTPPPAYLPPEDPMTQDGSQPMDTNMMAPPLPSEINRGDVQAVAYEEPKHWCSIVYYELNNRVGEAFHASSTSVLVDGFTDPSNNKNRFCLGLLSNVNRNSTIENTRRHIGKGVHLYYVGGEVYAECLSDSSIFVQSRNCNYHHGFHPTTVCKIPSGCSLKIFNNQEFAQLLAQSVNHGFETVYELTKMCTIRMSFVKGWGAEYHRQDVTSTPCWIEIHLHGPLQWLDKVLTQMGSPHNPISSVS", "UniProt Q13485": "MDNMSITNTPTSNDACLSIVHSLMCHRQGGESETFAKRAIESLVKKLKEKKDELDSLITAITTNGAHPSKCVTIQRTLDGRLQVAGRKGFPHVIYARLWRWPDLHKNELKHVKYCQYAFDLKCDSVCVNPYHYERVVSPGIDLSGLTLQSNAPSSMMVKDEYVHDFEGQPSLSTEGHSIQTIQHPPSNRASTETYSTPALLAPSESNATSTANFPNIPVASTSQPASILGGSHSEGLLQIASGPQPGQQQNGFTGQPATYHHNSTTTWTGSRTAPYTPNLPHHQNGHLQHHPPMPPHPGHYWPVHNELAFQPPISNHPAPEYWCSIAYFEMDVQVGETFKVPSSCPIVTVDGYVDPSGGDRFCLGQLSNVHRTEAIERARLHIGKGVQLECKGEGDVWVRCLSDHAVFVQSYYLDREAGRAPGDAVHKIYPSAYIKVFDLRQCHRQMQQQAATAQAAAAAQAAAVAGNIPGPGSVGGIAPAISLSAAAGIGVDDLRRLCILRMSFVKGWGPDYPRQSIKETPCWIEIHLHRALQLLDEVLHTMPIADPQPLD", "UniProt P97454": "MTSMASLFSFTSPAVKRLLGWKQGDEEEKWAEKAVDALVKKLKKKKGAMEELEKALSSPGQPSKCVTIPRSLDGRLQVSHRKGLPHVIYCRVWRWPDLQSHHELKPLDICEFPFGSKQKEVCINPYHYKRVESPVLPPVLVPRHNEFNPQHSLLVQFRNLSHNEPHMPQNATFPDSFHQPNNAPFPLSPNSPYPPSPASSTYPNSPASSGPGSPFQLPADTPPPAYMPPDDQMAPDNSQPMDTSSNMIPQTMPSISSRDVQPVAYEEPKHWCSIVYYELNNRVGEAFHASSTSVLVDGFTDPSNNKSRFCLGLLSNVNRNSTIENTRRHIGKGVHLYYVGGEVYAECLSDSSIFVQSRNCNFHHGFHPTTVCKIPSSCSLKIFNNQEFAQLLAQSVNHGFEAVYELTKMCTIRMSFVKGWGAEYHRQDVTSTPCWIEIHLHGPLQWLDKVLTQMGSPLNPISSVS", "UniProt O54835": "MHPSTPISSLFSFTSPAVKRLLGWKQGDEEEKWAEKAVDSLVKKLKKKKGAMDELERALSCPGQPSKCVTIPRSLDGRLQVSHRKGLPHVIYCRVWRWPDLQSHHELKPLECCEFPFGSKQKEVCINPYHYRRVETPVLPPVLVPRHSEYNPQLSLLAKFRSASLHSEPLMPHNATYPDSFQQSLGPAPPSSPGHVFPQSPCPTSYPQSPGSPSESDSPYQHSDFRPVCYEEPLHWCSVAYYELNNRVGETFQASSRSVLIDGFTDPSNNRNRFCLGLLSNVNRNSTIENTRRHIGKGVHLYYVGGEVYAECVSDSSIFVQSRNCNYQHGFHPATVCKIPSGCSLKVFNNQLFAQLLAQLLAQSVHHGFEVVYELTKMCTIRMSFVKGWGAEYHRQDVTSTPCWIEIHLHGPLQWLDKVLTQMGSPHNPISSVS", "UniProt O70571": "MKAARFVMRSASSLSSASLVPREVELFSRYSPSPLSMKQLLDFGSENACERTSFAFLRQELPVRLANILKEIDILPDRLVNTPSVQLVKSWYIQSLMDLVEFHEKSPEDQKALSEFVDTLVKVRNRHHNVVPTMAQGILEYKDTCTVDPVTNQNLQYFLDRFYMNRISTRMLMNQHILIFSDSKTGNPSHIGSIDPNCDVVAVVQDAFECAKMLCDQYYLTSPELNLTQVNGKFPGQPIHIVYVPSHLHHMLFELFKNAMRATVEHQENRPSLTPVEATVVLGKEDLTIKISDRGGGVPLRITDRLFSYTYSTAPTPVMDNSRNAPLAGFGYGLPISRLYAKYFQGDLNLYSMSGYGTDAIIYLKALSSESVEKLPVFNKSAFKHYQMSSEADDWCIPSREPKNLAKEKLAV"}, "source": "paper PMC4642318", "test_in_all_cases": "pull-down; GST-SMADs immobilised on glutathione-Sepharose 4B beads incubated with 35S-labelled in vitro translated PDK4; 25 mM HEPES pH 7.6, 1 mM DTT, 100 mM NaCl, 0.2 mM EDTA, 1.5% BSA, 20% glycerol, 4 °C, 12 h; only the target purified", "key": {"[1]": {"molecular_target": "GST-tagged human SMAD1 (human) (UniProt Q15797)"}, "[2]": {"molecular_target": "GST-tagged human SMAD4 (human) (UniProt Q13485)"}, "[3]": {"molecular_target": "GST-tagged mouse SMAD5 (mouse) (UniProt P97454)"}, "[4]": {"molecular_target": "GST-tagged rat SMAD8 (rat) (UniProt O54835)"}}, "note": "Results are given in words; binding and its absence hold for the method and conditions named. In cells and extracts the contact can be indirect. Some results given as binding are weak or reduced against the parent protein; the word gives no strength."}
{"substance": "[35S]-methionine-labelled mouse PDK4 (from UniProt O70571 1-412) (enzyme)", "values": [{"measurement": "binding", "setting": "[1]", "result": "binds"}, {"measurement": "binding", "setting": "[2]", "result": "no binding"}, {"measurement": "binding", "setting": "[3]", "result": "binds"}, {"measurement": "binding", "setting": "[4]", "result": "binds"}]}
